Measurements reported in PubChem BioAssay AID504793 (Drosophila RNAi Screening Center, 2011)
Aim: 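Genes required for cells to halt at G2/M after double-strand DNA breaks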 (primary screen). Cell system: Drosophila S2R+ cells. Reagent: long dsRNA against Drosophila genes, about 0.25 µg dsRNA per well. Duration: 4 days of dsRNA, then 4 hours of drug before read-out. Conditions: doxorubicin 0.5 µM for 4 hours to cause double-strand breaks, in cells also given a low, harmless dose of dsRNA against nbs to sensitise the assay. Read-out: 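Per-well count of mitotic cells stained for phospho-histone H3 after doxorubicin exposure, used as mitotic index; counts are raw and not normalised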. Direction: mitotic cells: higher = more cells in mitosis, weaker G2 arrest. Hit rule: 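Genes are called active only when high mitotic counts were reproduced with independent dsRNAs and mitosis was checked for delay without damage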. Meaning of the calls: active = confirmed in follow-up tests; inactive = not confirmed.
The deposit covers about 23,000 reagents; below is an unselected part of those that have a named target and a result. Over the whole deposit, 62 (0.27%) are marked active. 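Calls come from follow-up tests whose scores are not deposited, so confirmed genes may have low counts here; counts are not normalised per plate.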 Raw values are not corrected between plates. Reagent sequences are not shown.

gene	DRSC id	mitotic cells, replicate 1	call
CG13008 (GeneID 32654)	DRSC19527	10	inactive
CG13008 (GeneID 32654)	DRSC19528	15	inactive
CG7742 (GeneID 33750)	DRSC03066	6	inactive
Nprl3 (GeneID 39550)	DRSC11044	5	inactive
CG17738 (GeneID 41490)	DRSC15257	4	inactive
CG17738 (GeneID 41490)	DRSC28474	5	inactive
CG9590 (GeneID 41907)	DRSC16506	6	inactive
CG13028 (GeneID 2768967)	DRSC09908	3	inactive
CG5071 (GeneID 43090)	DRSC15710	8	inactive
CG5071 (GeneID 43090)	DRSC22570	10	inactive
CG5071 (GeneID 43090)	DRSC24514	7	inactive
CG34376 (GeneID 42638)	DRSC14696	8	inactive
CG34376 (GeneID 42638)	DRSC14701	11	inactive
CG34376 (GeneID 42638)	DRSC24983	1	inactive
CG34376 (GeneID 42638)	DRSC25207	7	inactive

Continued, starting with the last 5 of the part before.
gene	DRSC id	mitotic cells, replicate 1	call
CG5071 (GeneID 43090)	DRSC24514	7	inactive
CG34376 (GeneID 42638)	DRSC14696	8	inactive
CG34376 (GeneID 42638)	DRSC14701	11	inactive
CG34376 (GeneID 42638)	DRSC24983	1	inactive
CG34376 (GeneID 42638)	DRSC25207	7	inactive
CG31183 (GeneID 41927)	DRSC14403	5	inactive
CG31183 (GeneID 41927)	DRSC15554	2	inactive
CG42449 (GeneID 31486)	DRSC18084	11	inactive
CG42449 (GeneID 31486)	DRSC25316	8	inactive
CG32645 (GeneID 32264)	DRSC19683	7	inactive
CG32645 (GeneID 32264)	DRSC19889	9	inactive
CG42709 (GeneID 39453)	DRSC10277	14	inactive
CG42709 (GeneID 39453)	DRSC25693	5	inactive
CG12942 (GeneID 36158)	DRSC06253	3	inactive
CG12942 (GeneID 36158)	DRSC25987	7	inactive
Myo31DF (GeneID 34445)	DRSC03376	4	inactive
Myo31DF (GeneID 34445)	DRSC22702	7	inactive
Myo31DF (GeneID 34445)	DRSC25363	7	inactive
CG14294 (GeneID 42262)	DRSC14774	5	inactive
ImpE2 (GeneID 38432)	DRSC08665	7	inactive
ImpE2 (GeneID 38432)	DRSC28588	11	inactive
Unr (GeneID 38963)	DRSC10761	9	inactive
Unr (GeneID 38963)	DRSC26920	8	inactive
TBC1D23 (GeneID 33289)	DRSC00657	6	inactive
TBC1D23 (GeneID 33289)	DRSC30084	4	inactive
CG7448 (retired record) (GeneID 40440)	DRSC11828	2	inactive
CG7448 (retired record) (GeneID 40440)	DRSC22485	12	inactive
CG8157 (GeneID 36700)	DRSC07085	5	inactive
CG8157 (GeneID 36700)	DRSC21595	12	inactive
CG8157 (GeneID 36700)	DRSC25401	5	inactive
MED11 (GeneID 40042)	DRSC23091	21	inactive
MED11 (GeneID 40042)	DRSC25948	19	inactive
CG12974 (GeneID 40350)	DRSC11684	4	inactive
Tsp42Ej (GeneID 35620)	DRSC06113	4	inactive
Tsp42Ej (GeneID 35620)	DRSC28269	4	inactive
